HELM strings list residues between dots; [ac] is acetyl, [am] amide, other brackets name non-standard units.
Assay: general procedure: Fmoc solid-phase peptide synthesis; 2-Chlorotrityl resin preloaded with Fmoc-NMeF-OH; HATU/NMM; DIC/Oxyma Pure
Conditions: whole synthesis, scale 0.2 mmol

## PEPTIDE1{[CH2CO].F.R.[4Pal].L.[TyrOMe].[Nva].[NMeF].[dC].[am]}$PEPTIDE1,PEPTIDE1,1:R3-9:R3$$$V2.0
  crude mass: 260 mg
